For this assay, the target named is KLK1-99Lm (KLK1 with nine residues of its 99 loop deleted) (human) (UniProt P06870). Kind of assay: SDS-stable covalent serpin-protease complex on reducing SDS-PAGE; 2 µg rKAL mixed with 0.5-1 µg KLK1 (2-3 min), 5 µg KLK1-99Lm (20 min) or 0.5 µg KLK1-70Lm (2 min) at room temperature, no heparin; Coomassie stain; both purified.

Chains of the proteins cited; added tags and fusions are not shown. Lines headed by an entry give the natural chain unless they say otherwise; changes in a name come on top.
UniProt P06870: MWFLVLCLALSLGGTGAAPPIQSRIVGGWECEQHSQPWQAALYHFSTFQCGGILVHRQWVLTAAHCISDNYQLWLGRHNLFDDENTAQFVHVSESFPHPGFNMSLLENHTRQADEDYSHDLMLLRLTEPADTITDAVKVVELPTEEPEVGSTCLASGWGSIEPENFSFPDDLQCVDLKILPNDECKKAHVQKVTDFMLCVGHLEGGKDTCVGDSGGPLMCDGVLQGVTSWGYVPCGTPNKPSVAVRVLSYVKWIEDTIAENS

These are yes or no findings as the source states them, for the method shown. A result given as binding can be weak or reduced; the word gives no strength.

B1: Recombinant human kallistatin (rKAL), wild type (protein, UniProt P29622 45-427)
chain: GSPSLKIAPANADFAFRFYYLIASETPGKNIFFSPLSISAAYAMLSLGACSHSRSQILEGLGFNLTELSESDVHRGFQHLLHTLNLPGHGLETRVGSALFLSHNLKFLAKFLNDTMAVYEAKLFHTNFYDTVGTIQLINDHVKKETRGKIVDLVSELKKDVLMVLVNYIYFKALWEKPFISSRTTPKDFYVDENTTVRVPMMLQDQEHHWYLHDRYLPCSVLRMDYKGDATVFFILPNQGKMREIEEVLTPEMLMRWNNLLRKRNFYKKLELHLPKFSISGSYVLDQILPRLGFTDLFSKWADLSGITKQQKLEASKSFHKATLDVDEAGTEAAAATSFAIKFFSAQTNRHILRFNRPFLVVIFSTSTQSVLFLGKVVDPTKP
As to B1, the binding entry is listed as “binds”.

The values are drawn from PMC7356578.
